Data published in patent publication US20100144672A1, “PYRIMIDINYL PYRAZOLES AS INSECTICIDES AND PARASITICIDE ACTIVE AGENTS” (BAYER CROPSCIENCE AG, priority 2006, published 2010).
Some of these results come from one statement about several compounds together.

Columns and labels:
[1] = test system: larvae of the mustard beetle (Phaedon cochleariae); assay: Phaedon test (PHAECO spray treatment); type: in vivo; conditions: application rate 500 g/ha, after 7 d
Method: Phaedon Test ([…] Spray Treatment) [table] To produce a suitable preparation of active compound, 1 part by weight of active compound is mixed with the stated amounts of solvents and emulsifier, and the concentrate is diluted with emulsifier-containing water to the desired concentration. Discs of chinese cabbage (Brassica pekinensis) are sprayed with an active compound preparation of the desired concentration and, after drying, populated with larvae of the mustard beetle (Phaedon cochleariae). After the desired period of time, the effect in % is determined 100% means that all beetle larvae have been killed; 0% means that none of the beetle larvae have been killed.

[2] = test system: caterpillars of the army worm (Spodoptera frugiperda); assay: Spodoptera frugiperda test (SPODFR spray treatment); type: in vivo; conditions: application rate 500 g/ha, after 7 d
Method: Spodoptera frugiperda Test (SPODFR Spray Treatment) [table] To produce a suitable preparation of active compound, 1 part by weight of active compound is mixed with the stated amounts of solvents and emulsifier, and the concentrate is diluted with emulsifier-containing water to the desired concentration. Discs of maize leaves (Zea mays) are sprayed with an active compound preparation of the desired concentration and, after drying, populated with caterpillars of the army worm (Spodoptera frugiperda). After the desired period of time, the effect in % is determined 100% means that all caterpillars have been killed; 0% means that none of the caterpillars have been killed.

Row | Structure (SMILES) | activity (effect in %, beetle larvae killed) [1] [%] | activity (effect in %, caterpillars killed) [2] [%]
1 | Nc1c(-c2cccc(Br)c2)c(C(F)(F)F)nn1-c1ncccn1 [Example 1-8] | ≥ 80 | 
2 | Nc1c(-c2cccc(F)c2F)c(C(F)(F)F)nn1-c1ncccn1 [Example 1-13] |  | ≥ 80
3 | Nc1c(-c2ccc(F)cc2F)c(C(F)(F)F)nn1-c1ncccn1 [Example 1-14] | ≥ 80 | 
4 | Nc1c(-c2cccc(Cl)c2F)c(C(F)(F)F)nn1-c1ncccn1 [Example 1-17] | ≥ 80 | ≥ 80
5 | Nc1c(-c2c(F)cccc2Cl)c(C(F)(F)F)nn1-c1ncccn1 [Example 1-20] | ≥ 80 | 
6 | Nc1c(-c2cc(Br)ccc2F)c(C(F)(F)F)nn1-c1ncccn1 [Example 1-23] | ≥ 80 | ≥ 80
7 | Nc1c(-c2ccc(F)cc2Cl)c(C(F)(F)F)nn1-c1ncccn1 [Example 1-30] | ≥ 80 | 
8 | Nc1c(-c2cccc(Cl)c2Cl)c(C(F)(F)F)nn1-c1ncccn1 [Example 1-32] | ≥ 80 | ≥ 80
9 | Nc1c(-c2cc(Cl)ccc2Cl)c(C(F)(F)F)nn1-c1ncccn1 [Example 1-34] | ≥ 80 | 
10 | Nc1c(-c2cc(F)cc(Cl)c2)c(C(F)(F)F)nn1-c1ncccn1 [Example 1-74] | ≥ 80 | ≥ 80
11 | Nc1c(-c2ccc(Br)c(F)c2)c(C(F)(F)F)nn1-c1ncccn1 [Example 1-75] | ≥ 80 | ≥ 80
12 | Nc1c(-c2ccc(Br)c(Br)c2)c(C(F)(F)F)nn1-c1ncccn1 [Example 1-88] | ≥ 80 | ≥ 80
13 | Nc1c(-c2cc(F)cc(F)c2F)c(C(F)(F)F)nn1-c1ncccn1 [Example 2-2] |  | ≥ 80
14 | Nc1c(-c2c(F)cc(F)cc2F)c(C(F)(F)F)nn1-c1ncccn1 [Example 2-5] | ≥ 80 | 
15 | Nc1c(-c2cc(F)c(F)c(Cl)c2F)c(C(F)(F)F)nn1-c1ncccn1 [Example 2-16] | ≥ 80 | ≥ 80
16 | Nc1c(-c2ccc(F)c(Cl)c2F)c(C(F)(F)F)nn1-c1ncccn1 [Example 2-17] | ≥ 80 | ≥ 80
17 | Nc1c(-c2ccc(C(F)(F)F)cc2)c(C(F)(F)F)nn1-c1ncccn1 [Example 3-3] | ≥ 80 | 
18 | Nc1c(-c2cc(C(F)(F)F)ccc2C(F)(F)F)c(C(F)(F)F)nn1-c1ncccn1 [Example 3-11] | ≥ 80 | ≥ 80
19 | Nc1c(-c2ccc(C(F)(F)F)cc2F)c(C(F)(F)F)nn1-c1ncccn1 [Example 3-15] | ≥ 80 | 
20 | Nc1c(-c2cccc(C(F)(F)F)c2Cl)c(C(F)(F)F)nn1-c1ncccn1 [Example 3-23] | ≥ 80 | 
21 | Nc1c(-c2cc(C(F)(F)F)ccc2Cl)c(C(F)(F)F)nn1-c1ncccn1 [Example 3-26] | ≥ 80 | ≥ 80
22 | Nc1c(-c2cc(C(F)(F)F)ccc2Br)c(C(F)(F)F)nn1-c1ncccn1 [Example 3-33] | ≥ 80 | 
23 | Nc1c(-c2cccc(OC(F)F)c2)c(C(F)(F)F)nn1-c1ncccn1 [Example 4-2] | ≥ 80 | 
24 | Nc1c(-c2cccc(OC(F)(F)F)c2)c(C(F)(F)F)nn1-c1ncccn1 [Example 4-5] | ≥ 80 | 
25 | Nc1c(-c2ccc(OC(F)(F)Cl)cc2)c(C(F)(F)F)nn1-c1ncccn1 [Example 4-7] | ≥ 80 | 

Row | Structure (SMILES) | activity (effect in %, beetle larvae killed) [1] [%] | activity (effect in %, caterpillars killed) [2] [%]
26 | Nc1c(-c2ccc(F)c(OC(F)(F)F)c2)c(C(F)(F)F)nn1-c1ncccn1 [Example 4-18] | ≥ 80 | 
27 | Cc1cc(C)cc(-c2c(C(F)(F)F)nn(-c3ncccn3)c2N)c1 [Example 8-6] | ≥ 80 | 
28 | COc1ccc(-c2c(C(F)(F)F)nn(-c3ncccn3)c2N)cc1F [Example 8-25] | ≥ 80 | 
29 | CCOc1ccc(-c2c(C(F)(F)F)nn(-c3ncccn3)c2N)cc1Cl [Example 8-30] | ≥ 80 | 
30 | Cc1cc(F)cc(-c2c(C(F)(F)F)nn(-c3ncccn3)c2N)c1 [Example 8-42] | ≥ 80 | 
31 | Cc1ccc(-c2c(C(F)(F)F)nn(-c3ncccn3)c2N)cc1F [Example 8-43] | ≥ 80 | 
32 | COc1ccc(Br)cc1-c1c(C(F)(F)F)nn(-c2ncccn2)c1N [Example 8-44] |  | ≥ 80
33 | COc1ccc(Cl)cc1-c1c(C(F)(F)F)nn(-c2ncccn2)c1N [Example 8-48] |  | ≥ 80
34 | COc1ccc(-c2c(C(F)(F)F)nn(-c3ncccn3)c2N)c(Cl)c1OC [Example 8-62] | ≥ 80 | 
35 | COc1ccc(-c2c(C(F)(F)F)nn(-c3ncccn3)c2N)c(F)c1F [Example 8-65] | ≥ 80 | 
36 | CCCOc1ccc(-c2c(C(F)(F)F)nn(-c3ncccn3)c2N)cc1Cl [Example 8-88] | ≥ 80 | 
37 | CCCOc1ccc(-c2c(C(F)(F)F)nn(-c3ncccn3)c2N)cc1Br [Example 8-89] | ≥ 80 | 
38 | CCCOc1ccc(-c2c(C(F)(F)F)nn(-c3ncccn3)c2N)cc1OC [Example 8-109] | ≥ 80 | 
39 | CCOc1ccc(-c2c(C(F)(F)F)nn(-c3ncccn3)c2N)cc1OC [Example 8-110] | ≥ 80 | 
40 | COc1cc(-c2c(C(F)(F)F)nn(-c3ncccn3)c2N)cc(C(F)(F)F)c1 [Example 8-111] | ≥ 80 | 
41 | CCOc1cc(-c2c(C(F)(F)F)nn(-c3ncccn3)c2N)cc(C(F)(F)F)c1 [Example 8-112] | ≥ 80 | 
42 | Nc1c(-c2ccc3c(c2)CCCC3)c(C(F)(F)F)nn1-c1ncccn1 [Example 9-4] | ≥ 80 | 
43 | Nc1c(-c2ccc3c(c2)OC(F)(F)O3)c(C(F)(F)F)nn1-c1ncccn1 [Example 9-14] | ≥ 80 | 
44 | Nc1c(-c2ccc(Cl)cc2)c(CF)nn1-c1ncccn1 [Example 15-7] | ≥ 80 | 
45 | Nc1c(-c2ccc(Br)cc2)c(C(F)(F)Br)nn1-c1ncccn1 [Example 15-105] | ≥ 80 | 
46 | Nc1c(-c2ccc(Cl)cc2)c(C(F)(F)F)nn1-c1ncc(C(F)(F)F)cn1 [Example 19-121] | ≥ 80 | 
47 | CCNc1c(-c2ccc(Cl)cc2)c(C)nn1-c1ncccn1 [Example 25-07] | ≥ 80 | 
48 | CCNc1c(-c2ccc(F)cc2Cl)c(C)nn1-c1ncccn1 [Example 25-31] | ≥ 80 | 
49 | Cc1nn(-c2ncccn2)c(NC(C)C)c1-c1ccc(F)cc1Cl [Example 26-37] | ≥ 80 | 
50 | Cc1nn(-c2ncccn2)c(NCC2CC2)c1-c1ccc(F)cc1 [Example 26-62] | ≥ 80 | 
